From paper PMC5447080
No constants are given. Whether binding was seen depends on the method and setting. Binding seen in cells or lysates may run through a third protein. Some entries that bind do so weakly or less than the wild type.

Chains of the proteins cited; added tags and fusions are not shown.
UniProt P60228: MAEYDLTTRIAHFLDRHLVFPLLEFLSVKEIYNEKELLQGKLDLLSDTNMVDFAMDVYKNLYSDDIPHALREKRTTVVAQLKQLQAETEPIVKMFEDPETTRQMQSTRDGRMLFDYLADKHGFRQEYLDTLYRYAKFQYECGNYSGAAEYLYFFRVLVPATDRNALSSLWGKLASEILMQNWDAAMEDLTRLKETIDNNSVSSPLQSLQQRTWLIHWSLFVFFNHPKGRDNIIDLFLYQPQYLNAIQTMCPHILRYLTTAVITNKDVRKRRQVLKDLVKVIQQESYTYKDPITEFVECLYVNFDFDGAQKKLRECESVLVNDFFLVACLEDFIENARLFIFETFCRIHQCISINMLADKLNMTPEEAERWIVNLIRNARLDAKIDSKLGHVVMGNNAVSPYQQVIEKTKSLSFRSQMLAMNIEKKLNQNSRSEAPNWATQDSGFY
UniProt Q9UBQ5: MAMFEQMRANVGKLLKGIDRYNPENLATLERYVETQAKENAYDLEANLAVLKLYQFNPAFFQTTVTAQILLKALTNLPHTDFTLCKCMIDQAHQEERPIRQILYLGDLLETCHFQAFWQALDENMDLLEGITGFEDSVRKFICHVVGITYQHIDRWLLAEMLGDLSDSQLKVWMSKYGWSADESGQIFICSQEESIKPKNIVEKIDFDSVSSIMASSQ
UniProt O00303: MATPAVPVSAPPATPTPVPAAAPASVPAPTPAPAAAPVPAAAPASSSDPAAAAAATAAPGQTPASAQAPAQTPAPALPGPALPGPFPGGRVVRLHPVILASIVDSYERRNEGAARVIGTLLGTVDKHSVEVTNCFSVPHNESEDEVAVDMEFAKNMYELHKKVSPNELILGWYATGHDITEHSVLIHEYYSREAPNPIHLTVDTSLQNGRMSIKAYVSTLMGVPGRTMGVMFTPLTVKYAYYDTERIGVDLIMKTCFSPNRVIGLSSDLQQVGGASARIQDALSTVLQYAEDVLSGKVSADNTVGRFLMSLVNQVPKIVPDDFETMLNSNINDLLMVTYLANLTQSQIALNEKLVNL
UniProt O15372: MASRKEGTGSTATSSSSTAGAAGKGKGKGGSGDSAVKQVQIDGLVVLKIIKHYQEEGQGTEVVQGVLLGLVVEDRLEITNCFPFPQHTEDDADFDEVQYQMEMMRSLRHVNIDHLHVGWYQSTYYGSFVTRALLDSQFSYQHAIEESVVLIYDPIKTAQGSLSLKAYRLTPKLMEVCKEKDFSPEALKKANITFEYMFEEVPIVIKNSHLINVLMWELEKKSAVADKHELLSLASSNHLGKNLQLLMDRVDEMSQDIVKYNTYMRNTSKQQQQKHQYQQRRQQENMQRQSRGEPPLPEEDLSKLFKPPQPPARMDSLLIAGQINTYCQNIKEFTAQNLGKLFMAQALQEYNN

Experiments:
Assay in all cases: pull-down; co-purification on a GST column from E. coli co-expressing the eight tagged eIF3 subunits; retained proteins seen as bands on a Coomassie stained SDS-PAGE gel
[1] = molecular target: human eukaryotic translation initiation factor 3 subunit e (His6-GST-e) (human) (UniProt P60228)
[2] = molecular target: human eukaryotic translation initiation factor 3 subunit k (His6-GST-k) (human) (UniProt Q9UBQ5)
[3] = molecular target: human eukaryotic translation initiation factor 3 subunit f (His6-GST-f) (human) (UniProt O00303)

binding [1]: binds
binding [2]: binds
binding [3]: binds
Substance: human eukaryotic translation initiation factor 3 subunit h (His6-MBP-h) (from UniProt O15372 1-352)
